Values from PubChem BioAssay AID1224828 (NIAID, 2016).
Test: 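Find genes required for NF-kappaB p65 moving into the nucleus after LPS in mouse macrophages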 (primary screen). Cell system: mouse RAW264.7 G9 macrophage reporter cells (GFP-p65, Tnf promoter-mCherry). Reagent: siRNA pool against mouse genes, 100 nM. Time to read-out: 2 days siRNA transfection, then 40 min LPS before fixation. Treatment: LPS (Salmonella minnesota R595) at 10 ng/ml. Measurement: 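Imaged p65 nuclear translocation ratio, normalised to the plate median, converted to robust z-scores and averaged across two replicates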. Direction: p65 translocation robust z-score: higher = more nuclear NF-kappaB p65 after LPS than the plate median; nuclear/cytoplasmic p65 ratio: higher = more nuclear NF-kappaB p65. Active means: 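Called active when z exceeds 3.3 or falls under -1.56 (median of Tlr4 controls), giving activity score of at least 50; no calls for control wells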. Calls: active = hit (p65 shift raised or lowered); inactive = no clear change.
Shown is one part, drawn at random, of about 17,000 deposited reagents. 762 of all reagents (4.5%) count as active. 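Active calls include both raised and lowered p65 entry, mostly lowered; wells with fewer than 50 cells lack a z-score.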 Raw values vary from plate to plate and are shown uncorrected. Unmarked entries are inactive. No sequences are given here.

Gene | p65 translocation robust z-score | nuclear/cytoplasmic p65 ratio, rep 1 | nuclear/cytoplasmic p65 ratio, rep 2 | low cell count flag
Or52d1 (olfactory receptor family 52 subfamily D member 1) | 1.81 | 1.52 | 1.62 | enough cells to score
Jph4 (junctophilin 4) | -0.05 | 1.36 | 1.6 | enough cells to score
Il18rap (interleukin 18 receptor accessory protein) | 0.66 | 1.61 | 1.43 | enough cells to score
Or51q1c (olfactory receptor family 51 subfamily Q member 1C) | -0.66 | 1.37 | 1.18 | enough cells to score
Pmpca (peptidase (mitochondrial processing) alpha) | -0.26 | 1.56 | 1.59 | enough cells to score
Prmt3 (protein arginine N-methyltransferase 3) | 1.86 | 1.99 | 1.75 | enough cells to score
Zfp51 (zinc finger protein 51) | -0.38 | 1.32 | 1.24 | enough cells to score
Icos (inducible T cell co-stimulator) | 0.01 | 1.41 | 1.41 | enough cells to score
Dazap2 (DAZ associated protein 2) | -1.03 | 1.32 | 1.24 | enough cells to score
Ca15 (carbonic anhydrase 15) | -1.38 | 1.41 | 1.53 | enough cells to score
Timd2 (T cell immunoglobulin and mucin domain containing 2) | 0.06 | 1.36 | 1.21 | enough cells to score
Ctif (CBP80/20-dependent translation initiation factor) | -2.22 (active) | 1.31 | 1.24 | enough cells to score
Tyr (tyrosinase) | 0.28 | 1.46 | 1.63 | enough cells to score
Pde1a (phosphodiesterase 1A, calmodulin-dependent) | 0.05 | 1.35 | 1.41 | enough cells to score
4930503L19Rik (RIKEN cDNA 4930503L19 gene) | – | 1.26 | 1.32 | fewer than 50 cells per well; well left out of scoring
Msantd2 (Myb/SANT-like DNA-binding domain containing 2) | -0.69 | 1.55 | 1.65 | enough cells to score
Arfgap2 (ARF GTPase activating protein 2) | 1.13 | 1.49 | 1.44 | enough cells to score
Crispld1 (cysteine-rich secretory protein LCCL domain containing 1) | -0.3 | 1.46 | 1.83 | enough cells to score
Papolb (poly (A) polymerase beta (testis specific)) | -0.86 | 1.32 | 1.1 | enough cells to score
H2bc8 (H2B clustered histone 8) | – | 0 | 1.59 | fewer than 50 cells per well; well left out of scoring
Pigx (phosphatidylinositol glycan anchor biosynthesis, class X) | – | 1.54 | 1.31 | fewer than 50 cells per well; well left out of scoring
Swap70 (SWA-70 protein) | – | 1.32 | 1.16 | fewer than 50 cells per well; well left out of scoring
Or51i1 (olfactory receptor family 51 subfamily I member 1D) | 2.45 | 1.69 | 1.62 | enough cells to score
Xiap (X-linked inhibitor of apoptosis) | -1.05 | 1.52 | 1.4 | enough cells to score
